The supplement of paper PMC10849652
The other results are listed elsewhere or left out.

Chains of the proteins cited; added tags and fusions are not shown. Lines headed by an entry give the natural chain unless they say otherwise; changes in a name come on top.
UniProt Q9NVV0: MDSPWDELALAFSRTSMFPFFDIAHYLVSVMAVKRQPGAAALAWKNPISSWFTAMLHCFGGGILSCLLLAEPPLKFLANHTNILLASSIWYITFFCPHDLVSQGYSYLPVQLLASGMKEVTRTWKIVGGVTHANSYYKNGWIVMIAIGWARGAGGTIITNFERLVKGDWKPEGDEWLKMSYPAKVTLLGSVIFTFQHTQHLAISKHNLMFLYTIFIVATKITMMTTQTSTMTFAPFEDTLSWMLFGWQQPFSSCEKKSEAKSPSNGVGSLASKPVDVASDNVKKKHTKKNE
UniProt O14773: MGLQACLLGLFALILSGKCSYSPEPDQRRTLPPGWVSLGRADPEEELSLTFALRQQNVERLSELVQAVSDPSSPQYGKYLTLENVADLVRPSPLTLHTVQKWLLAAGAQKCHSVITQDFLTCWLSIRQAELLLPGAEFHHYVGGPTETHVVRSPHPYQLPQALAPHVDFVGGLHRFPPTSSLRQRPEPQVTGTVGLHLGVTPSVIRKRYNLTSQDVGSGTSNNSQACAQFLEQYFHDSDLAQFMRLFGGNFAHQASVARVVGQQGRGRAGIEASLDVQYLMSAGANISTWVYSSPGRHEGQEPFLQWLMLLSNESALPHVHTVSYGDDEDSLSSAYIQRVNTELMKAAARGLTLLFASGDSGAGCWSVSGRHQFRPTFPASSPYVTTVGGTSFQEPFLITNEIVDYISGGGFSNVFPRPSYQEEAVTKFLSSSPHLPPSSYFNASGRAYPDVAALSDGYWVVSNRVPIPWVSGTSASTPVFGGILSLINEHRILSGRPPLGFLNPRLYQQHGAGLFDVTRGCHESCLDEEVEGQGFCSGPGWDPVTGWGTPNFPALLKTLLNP
UniProt Q96S44: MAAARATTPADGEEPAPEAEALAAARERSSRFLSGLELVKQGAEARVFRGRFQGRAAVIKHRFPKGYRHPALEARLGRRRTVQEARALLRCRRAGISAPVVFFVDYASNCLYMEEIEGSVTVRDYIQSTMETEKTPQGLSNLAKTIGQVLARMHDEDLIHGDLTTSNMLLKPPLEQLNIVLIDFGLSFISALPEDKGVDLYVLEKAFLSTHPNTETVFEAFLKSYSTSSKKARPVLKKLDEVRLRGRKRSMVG
UniProt Q5JTV8: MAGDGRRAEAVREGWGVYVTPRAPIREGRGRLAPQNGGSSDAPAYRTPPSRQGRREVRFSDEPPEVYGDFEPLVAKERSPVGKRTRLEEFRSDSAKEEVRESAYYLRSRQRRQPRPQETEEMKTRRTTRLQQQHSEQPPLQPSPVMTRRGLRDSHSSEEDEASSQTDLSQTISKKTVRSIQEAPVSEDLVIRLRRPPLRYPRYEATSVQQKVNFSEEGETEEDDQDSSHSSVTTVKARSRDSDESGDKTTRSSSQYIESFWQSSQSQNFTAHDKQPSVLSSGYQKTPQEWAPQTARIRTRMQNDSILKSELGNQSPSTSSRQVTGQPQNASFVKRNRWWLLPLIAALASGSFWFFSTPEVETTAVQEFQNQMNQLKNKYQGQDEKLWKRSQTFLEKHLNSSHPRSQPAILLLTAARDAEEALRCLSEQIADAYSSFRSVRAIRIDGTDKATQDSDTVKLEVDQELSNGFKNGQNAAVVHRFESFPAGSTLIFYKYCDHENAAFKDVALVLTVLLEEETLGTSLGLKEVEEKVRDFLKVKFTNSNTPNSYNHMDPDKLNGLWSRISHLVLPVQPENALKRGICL
UniProt P62328: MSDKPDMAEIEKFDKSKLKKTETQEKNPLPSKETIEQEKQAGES
UniProt Q9H3S4: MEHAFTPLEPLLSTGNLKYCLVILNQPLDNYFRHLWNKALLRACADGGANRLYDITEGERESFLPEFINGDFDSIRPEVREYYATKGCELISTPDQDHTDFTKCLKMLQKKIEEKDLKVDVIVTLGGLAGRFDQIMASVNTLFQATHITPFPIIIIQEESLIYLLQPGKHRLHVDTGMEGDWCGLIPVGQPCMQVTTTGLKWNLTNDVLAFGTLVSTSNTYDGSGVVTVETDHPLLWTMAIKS
UniProt Q9UKE5: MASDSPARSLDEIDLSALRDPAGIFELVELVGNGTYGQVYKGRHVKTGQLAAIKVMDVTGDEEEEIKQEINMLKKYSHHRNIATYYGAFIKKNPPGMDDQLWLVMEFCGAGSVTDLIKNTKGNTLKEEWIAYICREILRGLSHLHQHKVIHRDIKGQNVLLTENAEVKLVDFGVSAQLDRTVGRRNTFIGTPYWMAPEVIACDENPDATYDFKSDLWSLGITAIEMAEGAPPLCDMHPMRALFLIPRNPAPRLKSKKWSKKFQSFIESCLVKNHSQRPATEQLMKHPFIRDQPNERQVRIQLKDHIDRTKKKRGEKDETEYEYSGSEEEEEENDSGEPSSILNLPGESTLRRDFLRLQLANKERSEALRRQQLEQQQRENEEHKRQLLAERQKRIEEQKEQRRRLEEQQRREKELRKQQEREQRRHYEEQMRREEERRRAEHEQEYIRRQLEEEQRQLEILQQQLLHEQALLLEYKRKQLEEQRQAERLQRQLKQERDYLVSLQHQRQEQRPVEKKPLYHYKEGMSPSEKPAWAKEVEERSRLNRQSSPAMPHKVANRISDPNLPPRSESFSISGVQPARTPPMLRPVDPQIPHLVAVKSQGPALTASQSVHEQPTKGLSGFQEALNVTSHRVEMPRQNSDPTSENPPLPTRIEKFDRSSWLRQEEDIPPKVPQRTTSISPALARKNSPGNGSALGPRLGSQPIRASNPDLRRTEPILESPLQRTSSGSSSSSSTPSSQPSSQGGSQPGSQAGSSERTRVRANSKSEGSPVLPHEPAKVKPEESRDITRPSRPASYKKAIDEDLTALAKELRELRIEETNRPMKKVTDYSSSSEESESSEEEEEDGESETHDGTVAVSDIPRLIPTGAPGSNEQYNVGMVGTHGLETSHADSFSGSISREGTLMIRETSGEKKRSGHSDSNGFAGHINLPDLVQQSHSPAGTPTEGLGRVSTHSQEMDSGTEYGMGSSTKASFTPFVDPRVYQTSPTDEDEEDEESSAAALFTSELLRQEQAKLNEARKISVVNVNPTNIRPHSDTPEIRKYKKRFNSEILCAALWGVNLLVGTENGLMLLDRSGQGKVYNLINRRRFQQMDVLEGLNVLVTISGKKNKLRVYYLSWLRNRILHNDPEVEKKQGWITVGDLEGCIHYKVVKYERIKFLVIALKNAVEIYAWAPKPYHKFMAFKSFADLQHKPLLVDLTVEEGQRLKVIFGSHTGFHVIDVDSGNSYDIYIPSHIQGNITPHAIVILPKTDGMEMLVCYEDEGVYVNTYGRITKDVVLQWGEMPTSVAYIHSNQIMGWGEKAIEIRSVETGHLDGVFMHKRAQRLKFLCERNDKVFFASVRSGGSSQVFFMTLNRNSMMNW
UniProt Q13641: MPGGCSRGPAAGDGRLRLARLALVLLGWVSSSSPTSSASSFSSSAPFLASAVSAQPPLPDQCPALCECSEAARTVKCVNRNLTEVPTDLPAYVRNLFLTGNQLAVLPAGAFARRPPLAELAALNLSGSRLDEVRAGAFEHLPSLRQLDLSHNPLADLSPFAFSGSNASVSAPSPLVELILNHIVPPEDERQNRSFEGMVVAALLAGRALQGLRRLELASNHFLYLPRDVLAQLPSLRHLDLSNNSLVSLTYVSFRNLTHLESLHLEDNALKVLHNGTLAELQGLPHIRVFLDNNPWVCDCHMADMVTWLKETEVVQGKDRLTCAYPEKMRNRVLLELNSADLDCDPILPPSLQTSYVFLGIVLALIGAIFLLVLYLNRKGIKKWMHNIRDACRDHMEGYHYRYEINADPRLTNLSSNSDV
UniProt Q9NWH2: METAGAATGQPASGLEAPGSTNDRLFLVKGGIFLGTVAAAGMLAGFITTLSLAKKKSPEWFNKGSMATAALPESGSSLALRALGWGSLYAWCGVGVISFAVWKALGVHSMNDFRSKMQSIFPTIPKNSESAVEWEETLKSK
UniProt Q4KMQ1: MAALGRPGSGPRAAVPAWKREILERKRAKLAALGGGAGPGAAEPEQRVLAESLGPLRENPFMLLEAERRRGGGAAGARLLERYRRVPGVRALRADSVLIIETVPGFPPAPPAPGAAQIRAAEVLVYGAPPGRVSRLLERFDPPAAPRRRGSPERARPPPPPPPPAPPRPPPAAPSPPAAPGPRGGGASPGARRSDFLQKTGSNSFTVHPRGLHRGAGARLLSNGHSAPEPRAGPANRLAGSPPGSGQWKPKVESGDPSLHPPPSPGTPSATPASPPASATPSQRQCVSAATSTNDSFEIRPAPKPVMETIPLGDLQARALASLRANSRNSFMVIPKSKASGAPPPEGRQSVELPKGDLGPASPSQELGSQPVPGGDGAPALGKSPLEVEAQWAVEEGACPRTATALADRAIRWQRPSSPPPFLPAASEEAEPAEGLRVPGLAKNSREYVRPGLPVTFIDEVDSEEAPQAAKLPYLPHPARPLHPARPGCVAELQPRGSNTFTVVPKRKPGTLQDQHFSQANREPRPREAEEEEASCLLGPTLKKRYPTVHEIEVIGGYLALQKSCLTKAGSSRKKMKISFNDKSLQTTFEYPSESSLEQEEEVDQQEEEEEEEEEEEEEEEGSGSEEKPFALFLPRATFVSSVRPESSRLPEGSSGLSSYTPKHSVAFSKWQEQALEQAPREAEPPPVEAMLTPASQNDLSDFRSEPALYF
UniProt Q8N9V7: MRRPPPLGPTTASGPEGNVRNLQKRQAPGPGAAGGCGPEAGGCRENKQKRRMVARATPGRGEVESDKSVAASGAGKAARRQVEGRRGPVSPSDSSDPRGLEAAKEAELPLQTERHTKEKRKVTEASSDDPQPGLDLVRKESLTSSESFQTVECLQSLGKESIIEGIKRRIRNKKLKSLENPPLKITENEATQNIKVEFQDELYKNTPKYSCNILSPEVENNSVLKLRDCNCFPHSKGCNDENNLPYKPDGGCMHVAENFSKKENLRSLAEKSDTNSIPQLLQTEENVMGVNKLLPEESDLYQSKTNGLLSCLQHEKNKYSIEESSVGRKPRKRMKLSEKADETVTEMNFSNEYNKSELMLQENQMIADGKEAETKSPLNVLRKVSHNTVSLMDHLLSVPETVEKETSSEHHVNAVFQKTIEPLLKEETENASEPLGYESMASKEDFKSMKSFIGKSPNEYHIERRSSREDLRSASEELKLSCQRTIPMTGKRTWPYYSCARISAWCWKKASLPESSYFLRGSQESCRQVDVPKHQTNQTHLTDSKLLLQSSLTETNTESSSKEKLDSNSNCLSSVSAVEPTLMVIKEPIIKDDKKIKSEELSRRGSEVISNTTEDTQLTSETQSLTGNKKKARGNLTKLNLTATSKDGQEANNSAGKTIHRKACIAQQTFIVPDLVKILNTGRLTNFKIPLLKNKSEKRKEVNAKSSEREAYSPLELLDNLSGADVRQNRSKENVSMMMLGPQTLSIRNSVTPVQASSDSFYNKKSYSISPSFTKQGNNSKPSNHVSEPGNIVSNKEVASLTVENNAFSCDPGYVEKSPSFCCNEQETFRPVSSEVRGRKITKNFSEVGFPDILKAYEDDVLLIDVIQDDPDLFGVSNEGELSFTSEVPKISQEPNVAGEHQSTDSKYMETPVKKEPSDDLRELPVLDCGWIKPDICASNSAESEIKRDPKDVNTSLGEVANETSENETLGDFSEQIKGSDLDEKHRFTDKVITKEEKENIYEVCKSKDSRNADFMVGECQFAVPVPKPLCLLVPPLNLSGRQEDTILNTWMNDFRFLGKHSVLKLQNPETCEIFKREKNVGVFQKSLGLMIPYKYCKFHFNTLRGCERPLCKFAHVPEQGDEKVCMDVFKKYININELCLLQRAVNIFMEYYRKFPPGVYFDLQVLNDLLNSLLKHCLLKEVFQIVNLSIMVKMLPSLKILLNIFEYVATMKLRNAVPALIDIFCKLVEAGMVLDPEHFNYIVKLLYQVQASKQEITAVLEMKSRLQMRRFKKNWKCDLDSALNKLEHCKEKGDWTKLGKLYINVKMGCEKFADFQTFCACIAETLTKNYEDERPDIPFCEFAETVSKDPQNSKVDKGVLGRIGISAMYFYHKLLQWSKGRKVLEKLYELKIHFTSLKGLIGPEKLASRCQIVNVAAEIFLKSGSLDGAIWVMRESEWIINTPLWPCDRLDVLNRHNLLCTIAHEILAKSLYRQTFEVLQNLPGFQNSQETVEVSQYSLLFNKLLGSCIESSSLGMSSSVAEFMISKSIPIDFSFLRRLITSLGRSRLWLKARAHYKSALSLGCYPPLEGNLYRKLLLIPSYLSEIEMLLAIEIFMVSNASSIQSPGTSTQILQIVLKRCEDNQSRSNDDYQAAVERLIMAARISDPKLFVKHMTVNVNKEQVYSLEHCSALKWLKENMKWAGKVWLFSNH
UniProt H0YL14: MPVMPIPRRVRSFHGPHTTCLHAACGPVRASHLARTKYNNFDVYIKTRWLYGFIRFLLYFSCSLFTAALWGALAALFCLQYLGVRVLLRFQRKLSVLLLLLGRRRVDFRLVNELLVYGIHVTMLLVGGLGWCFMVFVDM

How the values were obtained:
Test in all cases: log2 fold change, soluble protein after heating vs DMSO (PISA); higher = thermal stabilisation; K562 lysate, 10 uM; active = over 0.2 and 3.5 SD of the protein, either way, in both replicates (recomputed)
lapatinib = compound: CS(=O)(=O)CCNCc1ccc(-c2ccc3ncnc(Nc4ccc(OCc5cccc(F)c5)c(Cl)c4)c3c2)o1 [lapatinib]
Method in brief: (§1)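 A 30 min treatment with 10 μM compound was applied to crude K562 extract at 1 mg/mL protein in PBS pH 7.4 with 1 mM MgCl2. Heating for 3 min spanned 48°C-58°C, after which aliquots were pooled, adjusted to 0.5% NP-40 at 4°C and spun at 21,000xg for 90 min. TMTpro 16plex LC-MS/MS of the supernatant, with channel sums equalised, gave values recorded as log-two fold change in thermal stability against solvent controls, from duplicates.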

pictilisib = compound: CS(=O)(=O)N1CCN(Cc2cc3nc(-c4cccc5[nH]ncc45)nc(N4CCOCC4)c3s2)CC1 [pictilisib]
Method in brief: as §1

crizotinib = compound: C[C@@H](Oc1cc(-c2cnn(C3CCNCC3)c2)cnc1N)c1c(Cl)ccc(F)c1Cl [crizotinib]
Method in brief: as §1

[1] = compound: C[C@H](C1=CC=C(C=C1)C(=O)NC2=C3C=CNC3=NC=C2)N
Method in brief: as §1

duvelisib = compound: C[C@H](Nc1ncnc2nc[nH]c12)c1cc2cccc(Cl)c2c(=O)n1-c1ccccc1 [duvelisib]
Method in brief: as §1

gandotinib = compound: Cc1cc(Nc2cc(CN3CCOCC3)c3nc(C)c(Cc4ccc(Cl)cc4F)n3n2)n[nH]1 [gandotinib]
Method in brief: as §1

tozasertib = compound: Cc1cc(Nc2cc(N3CCN(C)CC3)nc(Sc3ccc(NC(=O)C4CC4)cc3)n2)n[nH]1 [tozasertib]
Method in brief: as §1

doramapimod = compound: Cc1ccc(-n2nc(C(C)(C)C)cc2NC(=O)Nc2ccc(OCCN3CCOCC3)c3ccccc23)cc1 [doramapimod]
Method in brief: as §1

bafetinib = compound: Cc1ccc(NC(=O)c2ccc(CN3CC[C@H](N(C)C)C3)c(C(F)(F)F)c2)cc1Nc1nccc(-c2cncnc2)n1 [bafetinib]
Method in brief: as §1

[2] = compound: Cc1cccc(CC(=O)N2CCc3c2ccc(-c2cn(C)c4ncnc(N)c24)c3F)n1
Method in brief: as §1

nilotinib = compound: Cc1cn(-c2cc(NC(=O)c3ccc(C)c(Nc4nccc(-c5cccnc5)n4)c3)cc(C(F)(F)F)c2)cn1 [nilotinib]
Method in brief: as §1

[3] = compound: Cc1nc(Nc2n[nH]c3c2CN(C(=O)N[C@H](CN(C)C)c2ccccc2)C3(C)C)c2sccc2n1
Method in brief: as §1

dasatinib = compound: Cc1nc(Nc2ncc(C(=O)Nc3c(C)cccc3Cl)s2)cc(N2CCN(CCO)CC2)n1 [dasatinib]
Method in brief: as §1

[4] = compound: Cc1ncc(-c2ccnc(Nc3ccc(S(C)(=O)=O)cc3)n2)n1C(C)C
Method in brief: as §1

[5] = compound: Cn1cc(-c2ccc3c(c2)CCN3C(=O)Cc2cccc(C(F)(F)F)c2)c2c(N)ncnc21
Method in brief: as §1

quisinostat = compound: Cn1cc(CNCC2CCN(c3ncc(C(=O)NO)cn3)CC2)c2ccccc21 [quisinostat]
Method in brief: as §1

tipifarnib = compound: Cn1cncc1[C@@](N)(c1ccc(Cl)cc1)c1ccc2c(c1)c(-c1cccc(Cl)c1)cc(=O)n2C [tipifarnib]
Method in brief: as §1

[6] = compound: NC(=O)Nc1cc(-c2cccc(F)c2)sc1C(=O)N[C@H]1CCCNC1
Method in brief: as §1

[7] = compound: NC(=O)c1cnc(N[C@@H]2CCCC[C@@H]2N)nc1Nc1cccc(-n2nccn2)c1
Method in brief: as §1

[8] = compound: NC1(c2ccc(-c3nc4ccn5c(=O)[nH]nc5c4cc3-c3ccccc3)cc2)CCC1
Method in brief: as §1

Measured: log2 fold change

TMEM38B (UniProt Q9NVV0)
inactive: lapatinib -0.016 | pictilisib -0.023 | crizotinib -0.019 | [1] -0.217 | duvelisib 0.024 | gandotinib 0.159 | tozasertib -0.012 | doramapimod -0.043 | bafetinib 0.045 | [2] 0.167 | nilotinib -0.027 | [3] 0.026 | dasatinib 0.047 | [4] 0.027 | [5] -0.088 | quisinostat -0.016 | tipifarnib -0.037 | [6] 0.009 | [7] -0.028 | [8] -0.106

TPP1 (UniProt O14773)
inactive: lapatinib -0.019 | pictilisib 0.017 | crizotinib -0.057 | [1] -0.006 | duvelisib 0.017 | gandotinib 0.014 | tozasertib -0.028 | doramapimod -0.033 | bafetinib -0.023 | [2] 0.01 | nilotinib -0.017 | [3] 0.007 | dasatinib -0.014 | [4] -0.003 | [5] 0.012 | quisinostat -0.088 | tipifarnib -0.018 | [6] 0.036 | [7] 0.006 | [8] 0.008

TP53RK (UniProt Q96S44)
inactive: lapatinib -0.011 | pictilisib 0.026 | crizotinib 0.042 | [1] 0.042 | duvelisib -0.029 | gandotinib -0.041 | tozasertib -0.01 | doramapimod -0.029 | bafetinib -0.032 | [2] 0.035 | nilotinib 0.011 | [3] 0 | dasatinib 0.052 | [4] 0.047 | [5] 0.057 | quisinostat 0.002 | tipifarnib 0.048 | [6] 0.021 | [7] 0.041 | [8] -0.013

TMEM8A (UniProt Q9HCN3)
inactive: lapatinib -0.042 | pictilisib 0.072 | [1] -0.006 | gandotinib -0.015 | tozasertib -0.028 | bafetinib -0.17 | [2] -0.031 | [7] -0.213 | [8] -0.012

TPCN1 isoform 3 (UniProt Q9ULQ1)
inactive: lapatinib -0.06 | pictilisib -0.121 | crizotinib 0.024 | [1] -0.096 | gandotinib 0.047 | tozasertib -0.053 | doramapimod -0.034 | bafetinib -0.037 | [2] 0.028 | quisinostat 0.012 | [6] -0.026 | [7] 0.049 | [8] -0.044

TOR1AIP1 (UniProt Q5JTV8)
inactive: lapatinib 0.031 | pictilisib 0.02 | duvelisib -0.044 | bafetinib 0.096 | nilotinib 0.068 | [3] -0.136 | dasatinib 0.123 | [4] 0.224 | [5] -0.057 | tipifarnib 0.137 | [7] 0.079 | [8] 0.115

TMSB4X (UniProt P62328)
inactive: lapatinib 0.12 | pictilisib -0.553 | crizotinib 0.015 | [1] -0.132 | gandotinib 0.65 | tozasertib 0.123 | doramapimod -0.24 | bafetinib -0.546 | [2] -0.166 | nilotinib -0.105 | [3] -0.107 | [4] 0.115 | quisinostat -0.024 | tipifarnib -0.071 | [6] 0.263 | [7] -0.027 | [8] 0

TPK1 (UniProt Q9H3S4)
inactive: lapatinib -0.004 | pictilisib -0.029 | [1] 0.059 | duvelisib 0.068 | gandotinib 0.036 | tozasertib -0.176 | bafetinib 0.031 | [2] 0.01 | nilotinib 0.068 | [3] -0.052 | dasatinib 0.049 | [4] 0.018 | [5] 0.009 | tipifarnib -0.172 | [7] 0.002 | [8] -0.081

Quoted from the entries so far (2 entries):
TPCN1 isoform 3 (UniProt Q9ULQ1)
inactive: lapatinib -0.06 | pictilisib -0.121 | crizotinib 0.024 | [1] -0.096 | gandotinib 0.047 | tozasertib -0.053 | doramapimod -0.034 | bafetinib -0.037 | [2] 0.028 | quisinostat 0.012 | [6] -0.026 | [7] 0.049 | [8] -0.044

TOR1AIP1 (UniProt Q5JTV8)
inactive: lapatinib 0.031 | pictilisib 0.02 | duvelisib -0.044 | bafetinib 0.096 | nilotinib 0.068 | [3] -0.136 | dasatinib 0.123 | [4] 0.224 | [5] -0.057 | tipifarnib 0.137 | [7] 0.079 | [8] 0.115

Continued:

TMEM223 (UniProt A0PJW6)
inactive: lapatinib -0.008 | pictilisib 0.073 | crizotinib 0.074 | [1] -0.078 | duvelisib -0.04 | gandotinib 0.091 | tozasertib 0.055 | doramapimod 0.303 | bafetinib -0.132 | [2] 0.044 | nilotinib 0.015 | [3] -0.148 | dasatinib -0.005 | [4] -0.04 | [5] 0.058 | quisinostat 0.06 | tipifarnib 0.037 | [6] -0.084 | [7] 0 | [8] 0.046

TNIK isoform 5 (UniProt Q9UKE5)
inactive: lapatinib -0.098 | pictilisib 0.046 | crizotinib -0.035 | [1] 0.051 | duvelisib 0.009 | gandotinib 0.025 | doramapimod 0.311 | bafetinib -0.055 | [2] -0.02 | dasatinib 0.187 | [5] 0.019 | quisinostat -0.218 | [7] 0.019
active: [6] 0.539

TMPPE (UniProt Q6ZT21)
inactive: lapatinib -0.007 | pictilisib -0.07 | crizotinib 0.036 | [1] -0.026 | gandotinib 0.077 | tozasertib -0.051 | doramapimod 0.018 | bafetinib -0.047 | [2] 0.009 | nilotinib 0.031 | [3] 0.035 | [4] -0.108 | quisinostat 0.026 | tipifarnib -0.05 | [6] -0.024 | [7] 0.007 | [8] 0.043

TNIK (UniProt C9J338)
active: [1] -0.443
inactive: lapatinib -0.042 | pictilisib -0.023 | crizotinib -0.075 | duvelisib 0.115 | gandotinib 0.344 | tozasertib 0.012 | doramapimod 0.005 | bafetinib -0.258 | [2] 0.344 | dasatinib -0.055 | [5] -0.043 | quisinostat -0.292 | [6] -0.043 | [7] 0.015 | [8] -0.068

TNFAIP1 (UniProt Q13829)
inactive: pictilisib -0.177 | [1] -0.049 | gandotinib 0.139 | bafetinib -0.331 | [2] 0.165

TNS1 (UniProt Q9HBL0)
inactive: pictilisib -0.132 | crizotinib -0.043 | [1] -0.188 | gandotinib 0.111 | tozasertib -0.027 | doramapimod -0.123 | bafetinib -0.078 | [2] 0.123 | nilotinib 0.015 | [3] -0.007 | [4] -0.021 | quisinostat -0.112 | tipifarnib 0.027 | [6] 0.043

TPBG (UniProt Q13641)
inactive: crizotinib -0.072 | duvelisib -0.033 | tozasertib -0.079 | doramapimod -0.154 | dasatinib 0.037 | [5] -0.075 | quisinostat -0.275 | [6] 0.026 | [8] -0.039

TMEM242 (UniProt Q9NWH2)
inactive: pictilisib 0.02 | crizotinib 0.031 | [1] -0.129 | duvelisib 0.023 | gandotinib 0.034 | tozasertib -0.073 | doramapimod -0.058 | bafetinib 0.084 | [2] 0.002 | nilotinib -0.062 | [3] -0.101 | dasatinib -0.086 | [4] 0.171 | [5] -0.015 | quisinostat 0.152 | tipifarnib 0.004 | [6] -0.004

TPRN (UniProt Q4KMQ1)
inactive: crizotinib -0.051 | duvelisib -0.02 | doramapimod 0.167 | dasatinib 0.053 | [5] -0.037 | quisinostat 0.02 | [6] 0.002

TOPAZ1 (UniProt Q8N9V7)
inactive: lapatinib 0.123 | pictilisib 0.087 | tozasertib 0.038 | bafetinib -0.254 | [7] 0.066 | [8] -0.021

TMEM250 (UniProt H0YL14)
inactive: crizotinib -0.037 | doramapimod -0.453 | quisinostat -0.582 | [6] 0.044
